Our source for the binding values is patent publication CN115433278A.

T1: CS1全长蛋白 on cells (293 cells transfected with a CS1 full-length plasmid; Raji cells) (UniProt Q9NQ25)
T1 sequence (looked up): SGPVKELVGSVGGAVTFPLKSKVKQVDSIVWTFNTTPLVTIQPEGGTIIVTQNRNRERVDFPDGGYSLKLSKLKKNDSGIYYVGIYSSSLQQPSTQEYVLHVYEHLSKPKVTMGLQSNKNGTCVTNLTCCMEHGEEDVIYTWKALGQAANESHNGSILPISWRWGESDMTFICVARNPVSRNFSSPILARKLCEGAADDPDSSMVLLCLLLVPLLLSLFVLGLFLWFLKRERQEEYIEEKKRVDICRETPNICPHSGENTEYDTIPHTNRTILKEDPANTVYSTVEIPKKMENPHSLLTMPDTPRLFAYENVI

B1: 命名为2B3的兔重组单克隆抗体 (rabbit recombinant monoclonal antibody 2B3) (antibody, V domains shown)
VH: QSVEESGGRLVTPGTPLTLTCTVSGFSLSAYAMGWFRQAPGKGLEYIGIISDSASTFYATWAKGRFTISRTSSTMVDLKMTSPTTEDTATYFCARAYYVVDNDSPFNMWGPGTVVTVS
VL: VMTQTPSSVSAAVGGTVTINCQASENIYSSLAWYQQKPGQPPKLLIYAASKLESGVPSRFKGSRSETDFTLTISDLECDDAATYYCQSYYDTGRASFAFGGGTEVVVK
B2: 命名为1H2的兔重组单克隆抗体 (rabbit recombinant monoclonal antibody 1H2) (antibody, V domains shown)
VH: QSVEESRGGLIKPTDTLTLTCTVSGFSLSNYGVSWVRQAPGNGLEYIGFIGTIGATLYANWAKSRSTITRNTNLNTVTLKMTSLTAADTATYFCARGIYGDIYVYAFDIWGPGTLVTVSS
VL: AAVLTQTPSPVSAAVGGTVTISCQASQSVRDNGDLAWYQQKPGQPPKLLIYDVSALASGVPSRFKGRGSGTQFTLTISDLECDDAATYSCAGGYIAGSDRWVFGGGTEVVVK
B3: 命名为1D12的兔重组单克隆抗体 (rabbit recombinant monoclonal antibody 1D12) (antibody, V domains shown)
VH: QSVEESGGRLVTPGTPLTLTCTVSGFSLSSYGMIWVRQAPGKGLEWIGSINTDGSTYYATWAKGRFTISRTSTTVDLKITSPTTEDTATYFCARGYPGYITDSYYYFNIWGPGTLVTVS
VL: DVVLTQTPASVEAAVRGTVTIKCQASQSISSYLSWYQQKPGQPPKLLIYRASTLESGVPSRFKGSGSGTEFTLTITDLECADAATYYCQCTYGTFHSSGYGFGGGTGVVVK

Results are given in words; binding and its absence hold for the method and conditions named. Some results given as binding are weak or reduced against the parent protein; the word gives no strength.

For the first assay, the target named is T1, CS1全长蛋白 on cells (293 cells transfected with a CS1 full-length plasmid; Raji cells). The assay can be described thus: flow cytometry on 293 cells transfected with full-length CS1, goat anti-rabbit IgG-488. (In flow cytometry, cells or beads pass a laser one at a time.)
On to B1, for which the binding entry was “binds”.
Same read-out and setting: in the case of B2 it was “binds”.
Still for that read-out and setting: in the case of B3 it was “binds”.

The next assay shares this target. The assay can be described thus: flow cytometry on Raji cells, goat anti-rabbit IgG-488.
In the case of B1, the binding entry was “binds”.
Still for that read-out and setting: in the case of B2 it was “binds”; in that of B3, “binds”.
